The supplement of paper PMC12282887
These are raw signals, not scaled to a control.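 For antimicrobials the highest concentration approximated the MIC. Most other compounds topped out at 500 µM, and known inducer-like compounds reached up to 1 mM. Inocula for deletion strains were tenfold smaller, and any well growing below 10% of the overall median was considered non-growing.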

Test system: Escherichia coli BW25113
Experiment: growth (OD600 area under curve, 8 h) (OD600 x h); higher = more growth
Protocol: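 E. coli BW25113 reporter strains (wild type, ΔmarA, ΔsoxS, Δrob, each carrying one of 8 lux reporter plasmids) were grown in 40 µl LB in 384-well plates at 37°C, 800 rpm, with each compound at 4 two-fold concentrations, in biological duplicates. Growth is the baseline-corrected OD600 area under the curve over 8 h (0-8 h WT, 1-9 h deletion strains).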

NC1CONC1=O (stereo not given) [Cycloserine D]
growth
Details	reporter plasmid: EVC	reporter plasmid: acrABp	reporter plasmid: marRABp	reporter plasmid: micFp	reporter plasmid: ompFp	reporter plasmid: robp	reporter plasmid: soxSp	reporter plasmid: tolCp
1 µg/ml, genetic background: wild type	3.09	3.44	3.39	3.08	3.42	3.54	3.186	3.215
1 µg/ml, genetic background: ΔmarA	3.38	4.33	4	3.28	3.76	4.2	3.36	3.16
1 µg/ml, genetic background: Δrob	3.12	3.35	3.57	3.25	2.96	2.93	2.97	3.29
1 µg/ml, genetic background: ΔsoxS	3.37	3.36	3.36	2.89	3.21	3.43	3.25	3.21
1.9 µg/ml, genetic background: wild type	2.707	3.46	3.34	3.11	3.279	3.463	2.99	3.175
1.9 µg/ml, genetic background: ΔmarA	3.18	4.24	3.78	3.32	3.68	4.02	3.12	3.08
1.9 µg/ml, genetic background: Δrob	2.7	2.95	3.48	2.97	2.69	2.8	2.79	3.05
1.9 µg/ml, genetic background: ΔsoxS	3.12	3.12	3.11	2.69	3.15	3.18	3.08	2.83
3.8 µg/ml, genetic background: wild type	2.91	3.26	3.34	3	3.27	3.387	3.05	3.061
3.8 µg/ml, genetic background: ΔmarA	3.04	3.91	3.66	3.18	3.62	4.01	3.21	3.06
3.8 µg/ml, genetic background: Δrob	3.07	2.868	3.32	3	2.76	2.7	2.741	3.19
3.8 µg/ml, genetic background: ΔsoxS	3.24	3.36	3.23	2.88	3.17	3.25	3.29	3.03
7.7 µg/ml, genetic background: wild type	2.586	3.14	2.76	2.88	2.727	3.04	2.9	2.99
7.7 µg/ml, genetic background: ΔmarA	2.98	3.47	3.266	2.97	3.26	3.72	2.83	2.89
7.7 µg/ml, genetic background: Δrob	2.9	2.74	3.07	2.93	2.42	2.5	2.69	3.07
7.7 µg/ml, genetic background: ΔsoxS	3.03	3	2.96	2.6	2.69	2.84	2.98	2.93

C[C@H](CCC(=O)O)[C@H]1CC[C@H]2[C@@H]3CC[C@@H]4C[C@H](O)CC[C@]4(C)[C@H]3C[C@H](O)[C@]12C [Deoxycholic acid]
growth
Details	reporter plasmid: EVC	reporter plasmid: acrABp	reporter plasmid: marRABp	reporter plasmid: micFp	reporter plasmid: ompFp	reporter plasmid: robp	reporter plasmid: soxSp	reporter plasmid: tolCp
24.5 µg/ml, genetic background: wild type	3.45	3.3	3.48	3.36	3.25	3.54	3.352	3.43
24.5 µg/ml, genetic background: ΔmarA	3.56	3.948	3.74	3.89	3.64	3.96	3.55	3.42
24.5 µg/ml, genetic background: Δrob	3.28	3.1	3.43	3.41	2.94	2.94	3.34	3.52
24.5 µg/ml, genetic background: ΔsoxS	3.59	3.68	3.48	3.27	3.38	3.53	3.43	3.41
49.1 µg/ml, genetic background: wild type	3.42	3.46	3.4	3.3	3.18	3.56	3.44	3.41
49.1 µg/ml, genetic background: ΔmarA	3.52	4.13	3.84	3.78	3.62	4.15	3.38	3.39
49.1 µg/ml, genetic background: Δrob	3.31	3.03	3.42	3.4	2.85	2.81	3.1	3.5
49.1 µg/ml, genetic background: ΔsoxS	3.55	3.43	3.39	3.218	3.45	3.16	3.28	3.43
98.1 µg/ml, genetic background: wild type	3.555	3.42	3.44	3.34	2.96	3.53	3.36	3.43
98.1 µg/ml, genetic background: ΔmarA	3.93	4.31	3.77	3.85	3.67	4.1	3.61	3.625
98.1 µg/ml, genetic background: Δrob	3.58	2.99	3.45	3.51	2.97	2.84	3.4	3.63
98.1 µg/ml, genetic background: ΔsoxS	3.73	3.57	3.48	3.43	3.48	3.26	3.496	3.67
196.3 µg/ml, genetic background: wild type	3.526	3.37	3.26	3.25	2.83	3.28	3.27	3.36
196.3 µg/ml, genetic background: ΔmarA	3.74	3.95	3.52	3.62	3.31	4	3.49	3.45
196.3 µg/ml, genetic background: Δrob	3.53	2.69	3.22	3.39	2.64	2.69	3.2	3.4357
196.3 µg/ml, genetic background: ΔsoxS	3.63	3.311	2.89	3.2	3.1	2.71	3.327	3.53

NCCc1ccc(O)c(O)c1 [Dopamine]
growth
Details	reporter plasmid: EVC	reporter plasmid: acrABp	reporter plasmid: marRABp	reporter plasmid: micFp	reporter plasmid: ompFp	reporter plasmid: robp	reporter plasmid: soxSp	reporter plasmid: tolCp
11.9 µg/ml, genetic background: wild type	2.83	2.53	3.19	2.94	2.63	2.78	2.71	2.93
11.9 µg/ml, genetic background: ΔmarA	3.49	4.33	3.69	3.35	3.27	3.43	2.88	3.05
11.9 µg/ml, genetic background: Δrob	2.48	2.88	3.3338	3.11	2.41	2.39	2.9	2.8
11.9 µg/ml, genetic background: ΔsoxS	2.75	2.76	2.83	2.54	2.63	2.891	2.86	2.71
23.7 µg/ml, genetic background: wild type	2.76	2.94	3.4	2.75	2.77	2.86	2.48	2.74
23.7 µg/ml, genetic background: ΔmarA	3.32	3.99	3.11	3.18	2.79	3.08	2.71	2.9
23.7 µg/ml, genetic background: Δrob	2.5	3.25	3.32	2.95	2.11	2.47	2.66	2.59
23.7 µg/ml, genetic background: ΔsoxS	2.58	2.71	2.93	2.45	2.56	3.17	2.76	2.51
47.4 µg/ml, genetic background: wild type	2.88	2.57	3.09	2.89	2.7	2.8	2.6	2.98
47.4 µg/ml, genetic background: ΔmarA	3.17	4.03	3.58	3.07	3.16	3.54	2.68	2.83
47.4 µg/ml, genetic background: Δrob	2.37	2.82	2.95	2.99	2.33	2.38	2.71	2.73
47.4 µg/ml, genetic background: ΔsoxS	2.58	2.7	3.03	2.38	2.63	3.04	2.95	2.84
94.8 µg/ml, genetic background: wild type	2.66	2.57	2.85	2.36	2.62	2.91	2.37	2.61
94.8 µg/ml, genetic background: ΔmarA	2.83	3.52	2.62	2.501	2.01	2.78	2.2	2.54
94.8 µg/ml, genetic background: Δrob	2.36	3.12	3.12	2.57	1.84	2.18	2.24	2.65
94.8 µg/ml, genetic background: ΔsoxS	2.22	2.83	2.91	1.96	2	2.7	2.41	2.53

O=C(O)CN(CCN(CC(=O)O)CC(=O)O)CC(=O)O [EDTA]
growth
Details	reporter plasmid: EVC	reporter plasmid: acrABp	reporter plasmid: marRABp	reporter plasmid: micFp	reporter plasmid: ompFp	reporter plasmid: robp	reporter plasmid: soxSp	reporter plasmid: tolCp
18.3 µg/ml, genetic background: wild type	2.98	2.63	3.34	3.23	3.03	3.23	3.048	3.01
18.3 µg/ml, genetic background: ΔmarA	3.04	4.38	3.65	3.27	3.51	3.82	2.9	3
18.3 µg/ml, genetic background: Δrob	2.66	3.318	3.4407	3.15	2.56	2.82	3.08	3.11
18.3 µg/ml, genetic background: ΔsoxS	2.91	3.33	3.27	2.43	3.26	3.12	3.11	2.97
36.5 µg/ml, genetic background: wild type	2.86	2.64	3.07	3.01	2.87	2.973	2.88	2.83
36.5 µg/ml, genetic background: ΔmarA	2.74	3.93	3.38	3.13	3.36	3.57	2.77	2.77
36.5 µg/ml, genetic background: Δrob	2.54	3.54	3.28	2.95	2.37	2.7	2.89	3.05
36.5 µg/ml, genetic background: ΔsoxS	2.81	3.05	3.14	2.36	2.81	3.11	2.9	2.93
73.1 µg/ml, genetic background: wild type	2.64	1.91	2.82	2.72	2.74	2.72	2.55	2.6
73.1 µg/ml, genetic background: ΔmarA	2.69	3.52	3.52	3.01	3.28	3.45	2.54	2.49
73.1 µg/ml, genetic background: Δrob	2.47	2.97	3.17	2.57	2.3	2.48	2.657	2.96
73.1 µg/ml, genetic background: ΔsoxS	2.98	3	3.14	2.31	2.67	2.84	2.83	2.45
146.1 µg/ml, genetic background: wild type	1.74	1.366	1.69	1.3	1.196	1.74	1.34	1.98
146.1 µg/ml, genetic background: ΔmarA	1.64	1.65	0.844	1.68	0.687	2.37	0.682	1.12
146.1 µg/ml, genetic background: Δrob	1.6	0.872	0.68	1.06	0.724	0.107	0.569	1.73
146.1 µg/ml, genetic background: ΔsoxS	0.665	-0.0435	0.0054	-0.0412	-0.0215	-0.076	-0.033	0.702

CC[C@H]1OC(=O)[C@H](C)[C@@H](O[C@H]2C[C@@](C)(OC)[C@@H](O)[C@H](C)O2)[C@H](C)[C@@H](O[C@@H]2O[C@H](C)C[C@H](N(C)C)[C@H]2O)[C@](C)(O)C[C@@H](C)C(=O)[C@H](C)[C@@H](O)[C@]1(C)O [Erythromycin]
growth
Details	reporter plasmid: EVC	reporter plasmid: acrABp	reporter plasmid: marRABp	reporter plasmid: micFp	reporter plasmid: ompFp	reporter plasmid: robp	reporter plasmid: soxSp	reporter plasmid: tolCp
1.8 µg/ml, genetic background: wild type	2.89	2.82	3.01	3.04	3.11	3.07	3.07	2.91
1.8 µg/ml, genetic background: ΔmarA	3.2	4.29	3.67	2.94	3.2	3.694	3.06	2.88
1.8 µg/ml, genetic background: Δrob	2.44	3.14	3.29	2.84	2.51	2.63	2.91	2.88
1.8 µg/ml, genetic background: ΔsoxS	2.85	2.86	2.88	2.51	3.29	3.03	2.89	2.79
3.7 µg/ml, genetic background: wild type	2.63	2.5	2.89	2.92	2.9	2.73	3.05	2.71
3.7 µg/ml, genetic background: ΔmarA	2.8	3.8	3.21	2.83	2.95	3.364	2.67	2.461
3.7 µg/ml, genetic background: Δrob	2.31	2.596	2.91	2.7	2.09	2.23	2.85	2.72
3.7 µg/ml, genetic background: ΔsoxS	2.55	2.53	2.53	2.08	2.55	2.61	2.34	2.54
7.3 µg/ml, genetic background: wild type	2.39	2.09	2.4194	2.34	2.46	2.53	2.81	2.3
7.3 µg/ml, genetic background: ΔmarA	2.15	3.05	2.49	2.15	2.51	2.87	2.62	1.79
7.3 µg/ml, genetic background: Δrob	1.65	1.94	2.39	2.03	1.55	1.54	2.29	2.05
7.3 µg/ml, genetic background: ΔsoxS	2.21	1.99	2.15	1.52	2.05	2.24	1.83	2.13
14.7 µg/ml, genetic background: wild type	1.2	0.574	1.02	1.209	0.7285	0.765	1.73	1.37
14.7 µg/ml, genetic background: ΔmarA	0.68	0.261	0.37	0.656	0.0593	0.811	1.2	0.779
14.7 µg/ml, genetic background: Δrob	0.597	0.22	0.411	0.752	0.0187	0.0373	1.2	1.15
14.7 µg/ml, genetic background: ΔsoxS	0.972	0.102	0.197	0.333	0.177	0.00513	0.452	1.04
